# At least one compound was matched to its structure with a doubt left.
# Assay: pKa and ionisation of active ingredients
# Type: physicochemical
smiles,measurement,setting,value
CCC1(c2ccccc2)C(=O)NC(=O)NC1=O [phenobarbital],ionized,at a pH of 7.2,50%
same,ionized,mouth pH lowered to 5.0 or less,less than 1%

# Source: patent US20060073189A1, “Chewing gums, lozenges, candies, tablets, liquids, and sprays for efficient delivery of medications and dietary supplements” (priority 2000, published 2006)
